Assay results

From PubChem BioAssay record AID504749 (NCATS, 2011).

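Malaria parasite (P. falciparum) lines kept in red blood cells; parasite DNA is measured by SYBR Green fluorescence after lysis, 72 h after compound addition. Each compound was titrated across a series from about 0.000037 to 29 µM. The number is the fitted AC50, the concentration giving a half-maximal change in signal; a lower value means higher potency, whether the curve shows a decrease or an increase. Calls follow the curve class and fit quality: every row here is inconclusive, covering signal-raising curves and weak, poorly fitted, partial or highest-dose-only inhibition curves.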

Values are in µM. Every entry below has the call inconclusive. These entries are mostly ones the record files as inconclusive; other results of the assay are not listed here. Potencies fitted to partial, single-point or poorly fitting curves are rough. Some entries filed as inconclusive have a full curve.

SMILES,setting,fitted potency (µM),curve as filed
c1ccc2sc(SN3CCOCC3)nc2c1,CP260,17.78,"inhibitor, single point"
c1ccc2sc(SN3CCOCC3)nc2c1,PAD,17.78,"inhibitor, single point"
c1ccc2sc(SN3CCOCC3)nc2c1,TAB109,17.78,"inhibitor, single point"
c1ccc2sc(SN3CCOCC3)nc2c1,AS120,17.78,"inhibitor, single point"
CN(C)CCCN1c2ccccc2Sc2ccc(Cl)cc21,ATS189,8.912,"inhibitor, partial curve"
CN(C)CCCN1c2ccccc2Sc2ccc(Cl)cc21,CP192,12,"inhibitor, single point"
CN(C)CCCN1c2ccccc2Sc2ccc(Cl)cc21,P93_24,3.162,"inhibitor, full curve"
CN(C)CCCN1c2ccccc2Sc2ccc(Cl)cc21,CP194,6.746,"inhibitor, partial curve"
CN(C)CCCN1c2ccccc2Sc2ccc(Cl)cc21,AS120,5.623,"inhibitor, partial curve"
CN(C)CCCN1c2ccccc2Sc2ccc(Cl)cc21,C2A,11.22,"inhibitor, single point"
CN(C)CCCN1c2ccccc2Sc2ccc(Cl)cc21,N140,11.22,"inhibitor, partial curve, poor fit"
CN(C)CCCN1c2ccccc2Sc2ccc(Cl)cc21,ECU,10,"inhibitor, partial curve, poor fit"
CN(C)CCCN1c2ccccc2Sc2ccc(Cl)cc21,CP217,5.623,"inhibitor, partial curve"
CN(C)CCCN1c2ccccc2Sc2ccc(Cl)cc21,CP238,7.08,"inhibitor, partial curve"
CN(C)CCCN1c2ccccc2Sc2ccc(Cl)cc21,TAB113,12.59,"inhibitor, partial curve"
CN(C)CCCN1c2ccccc2Sc2ccc(Cl)cc21,CP211,8.492,"inhibitor, single point"
CN(C)CCCN1c2ccccc2Sc2ccc(Cl)cc21,CP268,5.358,"inhibitor, partial curve"
CN(C)CCCN1c2ccccc2Sc2ccc(Cl)cc21,CP265,8.912,"inhibitor, partial curve, poor fit"
CN(C)CCCN1c2ccccc2Sc2ccc(Cl)cc21,JCK,10,"inhibitor, single point"
CN(C)CCCN1c2ccccc2Sc2ccc(Cl)cc21,CP185,11.22,"inhibitor, single point"
CN(C)CCCN1c2ccccc2Sc2ccc(Cl)cc21,CP269,13.46,"inhibitor, partial curve, poor fit"
CN(C)CCCN1c2ccccc2Sc2ccc(Cl)cc21,AA1029,7.943,"inhibitor, partial curve"
CN(C)CCCN1c2ccccc2Sc2ccc(Cl)cc21,CP329,5.358,"inhibitor, partial curve, poor fit"
CN(C)CCCN1c2ccccc2Sc2ccc(Cl)cc21,CP325,4.256,"inhibitor, partial curve"
CN(C)CCCN1c2ccccc2Sc2ccc(Cl)cc21,SC27B,4.467,"inhibitor, partial curve"
CN(C)CCCN1c2ccccc2Sc2ccc(Cl)cc21,CP203,7.569,"inhibitor, partial curve"
CN(C)CCCN1c2ccccc2Sc2ccc(Cl)cc21,CP305,12,"inhibitor, partial curve"
CN(C)CCCN1c2ccccc2Sc2ccc(Cl)cc21,CP252,12.59,"inhibitor, partial curve, poor fit"
CN(C)CCCN1c2ccccc2Sc2ccc(Cl)cc21,CP237,11.22,"inhibitor, single point"
CN(C)CCCN1c2ccccc2Sc2ccc(Cl)cc21,P94_40,6.31,"inhibitor, partial curve"
CN(C)CCCN1c2ccccc2Sc2ccc(Cl)cc21,CP291,6.746,"inhibitor, partial curve"
CN(C)CCCN1c2ccccc2Sc2ccc(Cl)cc21,TAB109,4.467,"inhibitor, partial curve"
CN(C)CCCN1c2ccccc2Sc2ccc(Cl)cc21,Dd2,4.467,"inhibitor, partial curve"
CN(C)CCCN1c2ccccc2Sc2ccc(Cl)cc21,CP260,10,"inhibitor, single point"
CN(C)CCCN1c2ccccc2Sc2ccc(Cl)cc21,3D7,17.78,"inhibitor, single point"
CN(C)CCCN1c2ccccc2Sc2ccc(Cl)cc21,CP250,12.59,"inhibitor, single point"
CN(C)CCCN1c2ccccc2Sc2ccc(Cl)cc21,CP191,10,"inhibitor, single point"
CN(C)CCCN1c2ccccc2Sc2ccc(Cl)cc21,CP297,0.1069,"inhibitor, full curve, poor fit"
CCCCCCCCCC(=O)O[C@H]1CC[C@H]2[C@@H]3CCC4=CC(=O)CC[C@]4(C)[C@H]3CC[C@]12C,CP286,17.78,"inhibitor, single point"
CCCCCCCCCC(=O)O[C@H]1CC[C@H]2[C@@H]3CCC4=CC(=O)CC[C@]4(C)[C@H]3CC[C@]12C,3D7,11.22,"inhibitor, single point"
CCCCCCCCCC(=O)O[C@H]1CC[C@H]2[C@@H]3CCC4=CC(=O)CC[C@]4(C)[C@H]3CC[C@]12C,W2,19.01,"inhibitor, single point"
CCCCCCCCCC(=O)O[C@H]1CC[C@H]2[C@@H]3CCC4=CC(=O)CC[C@]4(C)[C@H]3CC[C@]12C,CP260,10,"inhibitor, single point"
CCCCCCCCCC(=O)O[C@H]1CC[C@H]2[C@@H]3CCC4=CC(=O)CC[C@]4(C)[C@H]3CC[C@]12C,ICS,17.78,"inhibitor, single point"
CCCCCCCCCC(=O)O[C@H]1CC[C@H]2[C@@H]3CCC4=CC(=O)CC[C@]4(C)[C@H]3CC[C@]12C,CP335,19.01,"inhibitor, single point"

The first 5 entries again:

{"smiles": "c1ccc2sc(SN3CCOCC3)nc2c1", "setting": "CP260", "fitted potency (µM)": "17.78", "curve as filed": "inhibitor, single point"}
{"smiles": "c1ccc2sc(SN3CCOCC3)nc2c1", "setting": "PAD", "fitted potency (µM)": "17.78", "curve as filed": "inhibitor, single point"}
{"smiles": "c1ccc2sc(SN3CCOCC3)nc2c1", "setting": "TAB109", "fitted potency (µM)": "17.78", "curve as filed": "inhibitor, single point"}
{"smiles": "c1ccc2sc(SN3CCOCC3)nc2c1", "setting": "AS120", "fitted potency (µM)": "17.78", "curve as filed": "inhibitor, single point"}
{"smiles": "CN(C)CCCN1c2ccccc2Sc2ccc(Cl)cc21", "setting": "ATS189", "fitted potency (µM)": "8.912", "curve as filed": "inhibitor, partial curve"}